Experimental data reported in US12186365B2, “Composition for regulating cell division comprising FCHO1 modulator, and method for regulating cell division using same” (SEOUL NATIONAL UNIVERSITY R&DB FOUNDATION, priority 2015, dated 2025).
“Also recorded” adds a separate entry of the source. At least one peptide structure holds a part that was inferred or is arguable (an end, a ring closure or a residue). Ends that are not written are not given here.

Amino acid sequences for entries named in this document (tags omitted). A change or cut given only in a name is not applied to a line headed by its entry.
UniProt P31749: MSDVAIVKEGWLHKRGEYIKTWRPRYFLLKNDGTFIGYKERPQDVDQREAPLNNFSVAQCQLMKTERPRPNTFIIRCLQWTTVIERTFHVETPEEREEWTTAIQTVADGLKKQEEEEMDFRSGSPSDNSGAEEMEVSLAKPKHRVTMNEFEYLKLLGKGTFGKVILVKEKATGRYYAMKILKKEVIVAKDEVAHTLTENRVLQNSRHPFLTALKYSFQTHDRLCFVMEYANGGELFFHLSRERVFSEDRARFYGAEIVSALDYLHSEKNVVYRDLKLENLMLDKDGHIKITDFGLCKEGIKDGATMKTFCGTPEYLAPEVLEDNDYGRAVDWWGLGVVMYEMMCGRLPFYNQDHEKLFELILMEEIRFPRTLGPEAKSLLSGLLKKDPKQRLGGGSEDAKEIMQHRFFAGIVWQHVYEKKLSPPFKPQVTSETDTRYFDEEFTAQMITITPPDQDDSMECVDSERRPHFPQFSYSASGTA

How the values were obtained:
[1] = molecular target: T1, Akt1 (Homo sapiens, UniProt P31749); assay: In vitro binding of biotin-conjugated FCHo1-derived peptides to Akt1 (streptavidin plate, cell lysates, Akt1 antibody); details: biotin-conjugated peptide on streptavidin plate, FIG. 28
T1 construct: After treating with the cell lysates; endogenous in cells
From the text: To confirm the binding affinity between Akt1 and Akt1 motif-containing FCHo1 amino acid sequence-derived peptides, biotin was conjugated to peptides to complete the synthetization. The peptides were reacted and attached to on the streptavidin-attached plate. After treating with the cell lysates, the binding affinity of the peptide and Akt1 was confirmed by the Akt1 antibody. The experiment process and its result of confirming in vitro binding affinity of Akt1 according to respective peptides derived from FCHo1 binding sites are illustrated in FIG. 28.

[2] = test system: cells; assay: Real-time cell growth measurement using Xcelligence; format: cell-based; details: peptides treated in 10 μM, FIG. 30
Procedure: Cell viability was measured using Xcelligence for in real time observation, and the peptides were treated in 10 μM. […] The results are illustrated in FIG. 30.

Sequence: PPRRLRSRKVSC [560-571, PPRRLRSRKVSC]
- Akt1 binding affinity [1]: significantly increased
- inhibitory effect on cell growth [2]: inhibitory effects on the cell growth; also recorded: excellent inhibitory effect on cell growth
